From the supplement of paper PMC8616043
Where a name gives a salt, the structure may show the parent alone. The list shows a part of the results. This data set is noisy: repeats of one test often differ as much as different tests do.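 The cells are human U-2 OS cells that stably carry a GFP sensor with a nuclear import signal and a classical export signal. They were transfected to make PR50, a 50-repeat proline–arginine dipeptide protein from the ALS/FTD gene C9ORF72. Each well's nuclear-minus-cytoplasm GFP signal was scaled from in-plate DMSO (low) to PR-only wells (high), then scored against the other test wells on the plate; compounds scoring well below zero were called hits that reverse the PR effect.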

Test system: U-2 OS NCT-C biosensor cells expressing PR50
Experiment: Z-score of normalised NCT-C biosensor translocation index in PR50-expressing cells; higher = more nuclear biosensor (more disrupted nuclear export)
Settings: 3 µM; 24 h

Row | SMILES | Z-score
1 | CCCN[C@H]1CCc2nc(N)sc2C1 [Pramipexole Dihydrochloride Monohydrate] | inactive: 0.159
2 | CCCN[C@H]1CCc2nc(N)sc2C1 [Pramipexole dihydrochloride] | inactive: 1.69
3 | OC[C@H]1O[C@H]([S-])[C@H](O)[C@@H](O)[C@@H]1O.[Au+] [Aurothioglucose] | inactive: -0.74
4 | CCC(=O)N1CCN(C(=O)c2ccccc2)CC1 | inactive: 0.0407
5 | O=C(c1cccc(Br)c1)N1CCC(N2CCCC2)CC1 | inactive: -0.779
6 | CC(=O)c1ccc(S(=O)(=O)NC(=O)NC2CCCCC2)cc1 [Acetohexamide] | inactive: 0.344
7 | CCCCC[C@H](O)/C=C/[C@@H]1[C@@H](C/C=C\CCCC(=O)O)[C@@H](O)C[C@H]1O [Prostaglandin F2α] | inactive: -0.612
8 | CCSC(=N)N [S-Ethylisothiourea hydrobromide] | inactive: -0.32
9 | CCCNC(C)C(=O)Nc1ccccc1C (centres undefined) [Prilocaine·HCl] | inactive: -0.171
10 | CCCNC(C)C(=O)Nc1ccccc1C (centres undefined) [Prilocaine hydrochloride] | inactive: -0.575
11 | COc1ccc(CN(CCN(C)C)c2ccccn2)cc1 [Pyrilamine maleate] | inactive: 0.861
12 | CC(COc1ccccc1)N(CCCl)Cc1ccccc1 (centres undefined) [Phenoxybenzamine·HCl] | inactive: 0.802
13 | Nc1ncn([C@@H]2O[C@H](CO)[C@@H](O)[C@H]2O)c(=O)n1 [5-azacytidine] | inactive: 0.309
14 | Nc1ncn([C@@H]2O[C@H](CO)[C@@H](O)[C@H]2O)c(=O)n1 [Azacitidine] | inactive: -0.0743
15 | COc1cc(/C=C/C(=O)N2CCN(CC(=O)N3CCCC3)CC2)cc(OC)c1OC [Cinepazide maleate] | inactive: -0.442
16 | CCCCCCCCCCCCCCCCCCOP(=O)([O-])OC1CC[N+](C)(C)CC1 [Perifosine] | inactive: -0.891
17 | CCOC(=O)C1=C(C)NC(C)=C(C(=O)OCC)C1c1c(F)c(F)c(F)c(F)c1F [Nemadipine-A] | inactive: 0.0245
18 | NC(=O)N1c2ccccc2C=Cc2ccccc21 [Carbamazepine] | inactive: 0.107
19 | CC1(C(=O)O)CCC2(C)CCC3(C)C(=CC(=O)C4C5(C)CCC(O)C(C)(C)C5CCC43C)C2C1 (stereo not drawn) [18-β-Glycyrrhetinic acid] | inactive: -0.078
20 | O=c1ncccn1[C@@H]1O[C@H](CO)[C@@H](O)[C@H]1O [Zebularine] | inactive: -0.899
21 | CN(C)CCN(Cc1cccs1)c1ccccn1 [Methapyrilene hydrochloride] | inactive: -0.456
22 | CCCCCN(CCCOC)C(=O)C(CCC(=O)O)NC(=O)c1ccc(Cl)c(Cl)c1 (centres undefined) [Loxiglumide] | inactive: -1.13
23 | c1cnc2cc3c(cc2n1)[C@@H]1CNC[C@H]3C1 [Varenicline Tartrate] | inactive: -0.629

Row | SMILES | Z-score
24 | C[C@@H](N)[C@H]1CC[C@H](C(=O)Nc2ccncc2)CC1 | inactive: -0.0166
25 | CO[C@H]1/C=C/O[C@@]2(C)Oc3c(C)c(O)c4c(c3C2=O)C2=NC3(CCN(CC(C)C)CC3)NC2=C(NC(=O)/C(C)=C\C=C\[C@H](C)[C@H](O)[C@@H](C)[C@@H](O)[C@@H](C)[C@H](OC(C)=O)[C@@H]1C)C4=O [Rifabutin] | inactive: -0.561
26 | O=c1cc(-c2ccc(O)cc2)oc2cc(O)cc(O)c12 [Apigenin] | inactive: -0.126
27 | CC(C)C[C@H](NC(=O)[C@@H](Cc1c[nH]c2ccccc12)NC(=O)[C@H](Cc1ccc(O)cc1)NC(=O)[C@H](CO)NC(=O)[C@H](Cc1c[nH]c2ccccc12)NC(=O)[C@H](Cc1cnc[nH]1)NC(=O)[C@@H]1CCC(=O)N1)C(=O)N[C@@H](CCCN=C(N)N)C(=O)N1CCC[C@H]1C(=O)NCC(N)=O [Triptorelin Acetate] | inactive: -0.628
28 | CN(C)Cc1c(C(=O)NCCOc2ccc(C(=O)NO)cc2)oc2ccccc12 | active: -3.01
29 | CC(C)NCC(O)COc1ccc(COCCOC(C)C)cc1 (centres undefined) [Bisoprolol hemifumarate] | inactive: 0.362
30 | CC(C)NCC(O)COc1ccc(COCCOC(C)C)cc1 (centres undefined) [Bisoprolol Fumarate] | inactive: -0.0498
31 | CC(N)(C(=O)O)c1ccc(C(=O)O)cc1 (racemic) [(+-)-alpha-Methyl- (4-carboxyphenyl) glycine] | inactive: 0.000585
32 | O=C1CN2Cc3c(ccc(Cl)c3Cl)N=C2N1 [Anagrelide hydrochloride] | inactive: 4.45
33 | O=C1CN2Cc3c(ccc(Cl)c3Cl)N=C2N1 [Anagrelide] | inactive: -1.19
34 | CC1(C)CCC[C@](C)([C@H]2CC[C@]3(C)[C@@H]2[C@H](O)C[C@@H]2[C@@]4(C)CC[C@H](O)C(C)(C)[C@@H]4[C@@H](O)C[C@]23C)O1 [Panaxatriol] | inactive: -0.782
35 | Nc1nc(Cl)nc2c1ncn2[C@@H]1O[C@H](CO)[C@@H](O)[C@@H]1F [Clofarabine] | inactive: 0.735
36 | CC(C)C(=O)OCC(=O)[C@@]12O[C@H](C3CCCCC3)O[C@@H]1C[C@H]1[C@@H]3CCC4=CC(=O)C=C[C@]4(C)[C@H]3[C@@H](O)C[C@@]12C [Ciclesonide] | inactive: 0.199
37 | CC(N)=O [Acetamide] | inactive: 0.579
38 | COc1cc2c(cc1CC=C(C)C)C(=O)C[C@@H](c1ccc(O)cc1)O2 [Bavachinin A] | inactive: 0.806
39 | CC(=O)OC[C@@]1(O)C[C@@]23CC[C@@H]4c5ccoc5CC[C@@]4(C)[C@@H]2CC[C@@H]1C3 [Cafestol acetate] | inactive: -0.549
40 | COc1ccc(-c2cc(=O)c3c(O)cc(O)cc3o2)cc1O [Diosmetin] | inactive: -0.685
41 | O=C1S/C(=C\c2ccc(OCc3ccc(B(O)O)cc3)cc2)C(=O)N1Cc1ccc(F)cc1 | inactive: 0.718
42 | CCc1cccc(N(C)C(=N)Nc2cccc3ccccc23)c1 | inactive: -0.639
43 | CN1CCc2cc3c(cc2C(=O)Cc2ccc4c(c2C1)OCO4)OCO3 [Protopine] | inactive: -0.426
44 | O=C1NC(=O)[C@@]2(CCOc3ccc(F)cc32)N1 [Sorbinil] | inactive: 2.9
45 | Cc1ccc(C(=O)c2cc(O)c(O)c([N+](=O)[O-])c2)cc1 [Tolcapone] | inactive: -0.0935
46 | COc1ccc2[nH]cc(CCNC(C)=O)c2c1 [Melatonin] | inactive: -0.664

Row | SMILES | Z-score
47 | C=CC[C@@H]1/C=C(\C)C[C@H](C)C[C@H](OC)[C@H]2O[C@@](O)(C(=O)C(=O)N3CCCC[C@H]3C(=O)O[C@H](/C(C)=C/[C@@H]3CC[C@@H](O)[C@H](OC)C3)[C@H](C)[C@@H](O)CC1=O)[C@H](C)C[C@@H]2OC [Tacrolimus (Fk506)] | inactive: 0.0671
48 | CC1(C)CCC[C@](C)([C@H]2CC[C@]3(C)[C@@H]2[C@H](O)C[C@@H]2[C@@]4(C)CC[C@H](O)C(C)(C)[C@@H]4CC[C@]23C)O1 [Panaxadiol] | inactive: -0.346
49 | COC(=O)C1=C(C)NC(C)=C(C(=O)OC)C1c1cccc(NC(=O)NCCCN2CCC(c3cccc(OC)c3)CC2)c1 | inactive: -0.56
50 | CC(C)c1cccc(C(C)C)c1N1C(=O)c2ccc(O)cc2C1=O | inactive: -0.468
51 | OC(CCN1CCCCC1)(c1ccccc1)C1CC2C=CC1C2 (centres undefined) [Biperiden·HCl] | inactive: -0.0398
52 | OC(CCN1CCCCC1)(c1ccccc1)C1CC2C=CC1C2 (centres undefined) [Biperiden hydrochloride] | inactive: 3.08
53 | CCN(CC)CC#CCOC(=O)C(O)(c1ccccc1)C1CCCCC1 (centres undefined) [Oxybutynin Chloride] | inactive: -0.534
54 | Cc1ncc([N+](=O)[O-])n1CCO [Metronidazole] | inactive: 0.13
55 | CCCCCc1ccc(/C=C/C(=O)Nc2cc(Cl)ccc2C(=O)O)cc1 | inactive: 1.51
56 | N=C(N)c1ccccc1 [Benzamidine hydrochloride] | inactive: 2.98
57 | CCN(Cc1ccncc1)C(=O)C(CO)c1ccccc1 (centres undefined) [Tropicamide] | inactive: 0.322
58 | CC(C)N1CCN(c2ccc(OCC3COC(Cn4cncn4)(c4ccc(Cl)cc4Cl)O3)cc2)CC1 (centres undefined) [Terconazole] | inactive: -0.808
59 | CN1C2CCCC1CC(NC(=O)c1nn(C)c3ccccc13)C2 (centres undefined) [Granisetron hydrochloride] | inactive: -1.13
60 | CN1C2CCCC1CC(NC(=O)c1nn(C)c3ccccc13)C2 (centres undefined) [Granisetron·HCl] | inactive: 0.435
61 | CCN(CC)CCNC(=O)c1cc(S(C)(=O)=O)ccc1OC [Tiapride hydrochloride] | inactive: 0.885
62 | O=C(CCCN1CC=C(n2c(=O)[nH]c3ccccc32)CC1)c1ccc(F)cc1 [Droperidol] | inactive: 0.277
63 | Cc1cccc(/C=C/c2ccccc2)n1 | inactive: -0.46
64 | COc1ccc2cc(CCC(C)=O)ccc2c1 [Nabumetone] | inactive: -0.22
65 | O=C(O)/C=C/c1c[nH]c2ccccc12 [3-Beta-Indoleacrylic acid] | inactive: -0.678
66 | O=c1[nH]c2ccccc2c2ccccc12 [6(5H)-  Phenanthridinone] | inactive: -1.4
67 | C#CCN(C)Cc1ccccc1 [Pargyline hydrochloride] | inactive: 0.55
68 | O=c1c(O)c(-c2cc(O)c(O)c(O)c2)oc2cc(O)cc(O)c12 [Myricetin] | inactive: -0.503
69 | O=c1cc(-c2ccccc2)oc2cc(O)c(O)cc12 [6,7-Dihydroxyflavone] | inactive: -0.994
